The test system of this assay is P388 leukemia ip, CD2F1 mice, survival T/C. Nature of the assay: NCI In Vivo Anticancer Drug Screen. Data for tumor model P388 Leukemia (intraperitoneal) in CD2F1 (CDF1) mice. Conditions: T/C endpoint: median survival time, higher T/C = longer survival.
[1] abbreviates: dose: 50.0 mg/kg/injection, schedule: Q01DX009 (ip), vehicle: saline with Tween-80.
The mark [2] stands for this setting: dose: 100.0 mg/kg/injection, schedule: Q01DX009 (ip), vehicle: saline with Tween-80.
[3] abbreviates: dose: 400.0 mg/kg/injection, schedule: Q04DX003 (ip), vehicle: saline with Tween-80.
Setting [4] is: dose: 100.0 mg/kg/injection, schedule: Q01DX005 (ip), vehicle: saline with Tween-80.
Setting [5] is: dose: 200.0 mg/kg/injection, schedule: Q01DX005 (ip), vehicle: saline with Tween-80.
Setting [6] is: dose: 200.0 mg/kg/injection, schedule: Q01DX009 (ip), vehicle: saline with Tween-80.
[7] abbreviates: dose: 200.0 mg/kg/injection, schedule: Q04DX003 (ip), vehicle: saline with Tween-80.

Each structure is given as a SMILES string. The list is a part of this screen's results and no random one: it gathers tests that were run many times, whatever their T/C, doses with no T/C, and many T/C values between a quarter and a half above the control. Other doses and runs of a compound stand elsewhere. T/C: endpoint of the treated group in % of that of the vehicle group. Some entries give survivors of the animals treated and no T/C: the source files T/C as zero there, which appears to mark a toxic dose or a test without result, not a measured value. Some doses without a T/C left all or most animals alive at the check, yet need not have been tolerated: survival well below the control is almost never listed, so the zero probably covers shortened survival too. Survivors were counted at the toxicity check, usually on the fifth day, unless a day is given; later deaths do not show. Schedules are NCI's codes, taken here to give the interval after Q, in days (D) or hours (H), and the number of doses after X. For survival time, the PubChem record calls one and a half times the control and up active, and a quarter to a half above the control has no call in these data; cut-offs in other NCI protocols can differ. Some doses were run more than once; the results are listed from low to high. Some T/C values carry the count of animals alive at the toxicity check (mostly the fifth day); without a count, all were alive then.

Take `NC(CSC(c1ccccc1)(c1ccccc1)c1ccc2ccccc2c1)C(=O)O` (configuration not stated): the survivor count runs as follows: under setting [1], 6 of 6; (dose: 50.0 mg/kg/injection, schedule: Q01DX009 (ip), vehicle: water) 6 of 6; (dose: 66.0 mg/kg/injection, schedule: Q04DX003 (ip), vehicle: saline) 3 of 6; under setting [2], 6 of 6; (dose: 100.0 mg/kg/injection, schedule: Q01DX009 (ip), vehicle: water) 4 of 6; (dose: 100.0 mg/kg/injection, schedule: Q04DX003 (ip), vehicle: saline) 5 of 6. The survivor count (dose: 150.0 mg/kg/injection, schedule: Q04DX003 (ip), vehicle: saline) was 5 of 6.

As for `N#CN=[N+]([O-])c1cccc([N+](=O)[O-])c1`, the survivor count is 3 of 6 (dose: 25.0 mg/kg/injection, schedule: Q04DX003 (ip), vehicle: Klucel (hydroxypropylcellulose) (HPC)); 1 of 6 (dose: 50.0 mg/kg/injection, schedule: Q04DX003 (ip), vehicle: Klucel (hydroxypropylcellulose) (HPC)); 0 of 6 (dose: 100.0 mg/kg/injection, schedule: Q04DX003 (ip), vehicle: Klucel (hydroxypropylcellulose) (HPC)); 0 of 6 (dose: 200.0 mg/kg/injection, schedule: Q04DX003 (ip), vehicle: Klucel (hydroxypropylcellulose) (HPC)).

For the compound `Oc1ccccc1C=NCCN1CC1.Oc1ccccc1C=NCCN1CC1.[Co+2]`, the survivor count runs as follows: (dose: 75.0 mg/kg/injection, schedule: Q01DX009 (ip), vehicle: saline) 0 of 6; (dose: 150.0 mg/kg/injection, schedule: Q01DX009 (ip), vehicle: saline) 1 of 6; (dose: 300.0 mg/kg/injection, schedule: Q01DX009 (ip), vehicle: saline) 0 of 6.

With `O=c1[nH]c(=O)n(C2CC(O)C(CS)O2)cc1F` (configuration not stated), the T/C is, setting by setting: (dose: 50.0 mg/kg/injection, schedule: Q01DX005 (ip), vehicle: Klucel (hydroxypropylcellulose) (HPC)) 127 % of control; (dose: 100.0 mg/kg/injection, schedule: Q01DX005 (ip), vehicle: Klucel (hydroxypropylcellulose) (HPC)) 129 and 140 % of control.

Turning to `COC(=O)C(Cc1ccccc1)NCCNC(C)=O` (configuration not stated), the survivor count under setting [3] is recorded as 2 of 6.

For `CCOC(=O)N/N=C/c1ccc(N(C)CCC#N)cc1`, the survivor count reads like this: (dose: 100.0 mg/kg/injection, schedule: Q01DX009 (ip), vehicle: Klucel (hydroxypropylcellulose) (HPC)) 6 of 6; (dose: 400.0 mg/kg/injection, schedule: Q01DX009 (ip), vehicle: Klucel (hydroxypropylcellulose) (HPC)) 3 of 6.

Regarding `O=c1[nH]c2c([N+](=O)[O-])cc(Cl)cc2nc1/C=C(\O)c1ccc(Cl)cc1`, the survivor count (dose: 60.0 mg/kg/injection, schedule: Q01DX005 (ip), vehicle: Klucel (hydroxypropylcellulose) (HPC)) is listed as 5 of 6.

Consider `CCOC(=O)N1CCN(C(=S)N/N=C(\C)c2ncccn2)CC1`, for which the survivor count is reported as 1 of 6 (dose: 25.0 mg/kg/injection, schedule: Q01DX005 (ip), vehicle: saline with Tween-80); 0 of 6 (dose: 50.0 mg/kg/injection, schedule: Q01DX005 (ip), vehicle: saline with Tween-80); 0 of 6 under setting [4]; 0 of 6 under setting [5].

As to `CCOC(=O)C(NC(=O)C(Cc1ccc(N(CCCl)CCCl)cc1)NC(C)=O)C(C)C` (configuration not stated), the T/C runs as follows: (dose: 20.0 mg/kg/injection, schedule: Q04DX003 (ip), vehicle: other) 128 % of control; (dose: 25.0 mg/kg/injection, schedule: Q04DX003 (ip), vehicle: saline with Tween-80) 136 % of control; (dose: 40.0 mg/kg/injection, schedule: Q04DX003 (ip), vehicle: other) 137 % of control; (dose: 75.0 mg/kg/injection, schedule: Q04DX003 (ip), vehicle: other) 136 % of control; (dose: 80.0 mg/kg/injection, schedule: Q04DX003 (ip), vehicle: other) 143 % of control. Besides, under setting [3], the survivor count is recorded as 5 of 6.

Turning to `CC(C)Cc1cc(-c2cc(CC(C)C)nc(N)n2)nc(N)n1`, the survivor count (dose: 240.0 mg/kg/injection, schedule: Q01DX005 (ip), vehicle: saline) was 3 of 6.

In the case of `[Cl][Pt+2][Cl].[NH-]C1CCCC2CCC[N-]C12` (configuration not stated), the T/C reads like this: (dose: 25.0 mg/kg/injection, schedule: Q01DX009 (ip), vehicle: saline with Tween-80) 143 and 147 % of control; under setting [1], 145 % of control.

On to `Cc1cccc(Cl)c1NC(=O)NCCCN1CCCCC1C` (configuration not stated), for which the survivor count (dose: 240.0 mg/kg/injection, schedule: Q01DX005 (ip), vehicle: saline with Tween-80) is on record as 0 of 6.

As for `CCN(CC)CCNc1ccc(C)c2oc3ccc(O)cc3c(=O)c12`, the survivor count runs as follows: (dose: 100.0 mg/kg/injection, schedule: Q01DX005 (ip), vehicle: distilled water + Tween-80) 2 of 5; (dose: 200.0 mg/kg/injection, schedule: Q01DX005 (ip), vehicle: distilled water + Tween-80) 0 of 5.

Regarding `CS(=O)(=O)OCCN(CCOS(C)(=O)=O)c1ccc(C=Nc2ccc3oc(=O)ccc3c2)cc1`, the survivor count under setting [6] is given as 6 of 6. The T/C under setting [7] is 136 % of control.

As for `Cc1ccc[c]([Hg][Cl])c1N=Nc1ccccc1`, the survivor count was 1 of 6 (dose: 38.0 mg/kg/injection, schedule: Q01DX009 (ip), vehicle: saline with Tween-80); 0 of 6 under setting [1]; 0 of 6 under setting [2]; 5 of 6 under setting [6].

`CCCCc1ccc(C)c(O)c1`: the survivor count under setting [6] is listed as 3 of 6.

For `CCCOC1CC(C)(O)C(C(=O)OC)c2cc3c(c(O)c21)C(=O)c1c(O)cc2c(c1C3=O)OC1OC2(C)C(O)C(N(C)C)C1O` (configuration not stated), the T/C was 133 % of control (dose: 2.5 mg/kg/injection, schedule: Q01DX009 (ip), vehicle: other); 130 % of control (dose: 5.0 mg/kg/injection, schedule: Q01DX009 (ip), vehicle: other); 134 % of control (dose: 10.0 mg/kg/injection, schedule: Q01DX009 (ip), vehicle: other). For the same compound, the survivor count is 5 of 6 (dose: 20.0 mg/kg/injection, schedule: Q01DX009 (ip), vehicle: other) and 0 of 6 (dose: 40.0 mg/kg/injection, schedule: Q01DX009 (ip), vehicle: other).

Consider `OCCNCCNc1ccnc2c1ccc1ccccc12`, for which the survivor count under setting [4] is on record as 4 of 6 and the survivor count under setting [5] is 0 of 6.

Consider `O=c1[nH]cc(N=Cc2cccc3c2OCO3)c(=O)[nH]1`, for which, for the setting “dose: 400.0 mg/kg/injection, schedule: Q01DX001 (ip), vehicle: suspension in saline”, the survivor count was 6 of 6.

Consider `Oc1cc(O)cc(/C=C/c2ccc(O)c(O)c2)c1`, for which the T/C is 131 % of control (dose: 25.0 mg/kg/injection, schedule: Q01DX009 (ip), vehicle: DMSO) and 131 % of control [5 of 6 alive] (dose: 50.0 mg/kg/injection, schedule: Q01DX009 (ip), vehicle: DMSO).

Consider `C=C1C(=O)OC2CC(C)/C=C\C(=O)C(C)(O)C(O)C(O)C12` (configuration not stated) (tested in a mixture with another compound), for which, where the note is “dose: 50.0 mg/kg/injection, schedule: Q01DX001 (ip), vehicle: Klucel (hydroxypropylcellulose) (HPC)”, the survivor count is listed as 0 of 6.

As for `CN(C)C(=O)SC1=C(c2c(Cl)cccc2Cl)C(=O)c2ccccc21`, the survivor count (dose: 400.0 mg/kg/injection, schedule: Q01DX005 (ip), vehicle: Klucel (hydroxypropylcellulose) (HPC)) is 1 of 6.

`Nc1nc(=S)c2[nH]c(=S)[nH]c2[nH]1`: the survivor count is 6 of 6 under setting [2]; 6 of 6 under setting [6]; 5 of 6 (dose: 400.0 mg/kg/injection, schedule: Q01DX009 (ip), vehicle: saline with Tween-80). In addition, the T/C reads like this: (dose: 100.0 mg/kg/injection, schedule: Q04DX003 (ip), vehicle: saline with Tween-80) 136 % of control; under setting [6], 145 % of control; under setting [7], 127 % of control; under setting [3], 140 [5 of 6 alive] and 145 % of control.

The values are drawn from PubChem BioAssay AID330 (DTP/NCI, 2004).
